Laboratory results reported in patent publication US7671074B2, “Sulfonylguanidine compounds and pharmaceutical uses thereof” (Gruenenthal GmbH, priority 2000, dated 2010).
Some of these results come from one statement about several compounds together.

Test system: male Sprague-Dawley rats with L5/L6 spinal nerve ligatures
Assay: In vivo experiments according to Chung (spinal nerve ligation, tactile withdrawal threshold)
Set-up: species or system rat
Conditions: Chung model
Protocol: In male Sprague-Dawley rats spinal nerve ligatures were applied according to Kim and Chung (1992) to the left L5/L6 spinal nerves. At the same time spinal catheters were implanted according to Pogatzki et al. ^6 (2000). 4 to 6 days after the operation the tactile threshold baseline (withdrawal thresholds) was measured on the ipsilateral and contra lateral rear paw by an electronic vonFrey anaesthesiometer (IITC Life Science, USA). […] After the test and baseline measurement, gabapentin and substances according to the invention were administered. The tactile withdrawal thresholds were measured 30 minutes after administration. The results are expressed as ED50 and % maximal possible effect (% MPE; % of the maximal possible effect) on the ipsilateral side, in which the baseline is taken as 0% and the withdrawal threshold of a control group is taken as 100% MPE.

## NCC1(CC(=O)O)CCCCC1 [gabapentin, reference compound]
  duration of action: at least 30 hours
